Laboratory results taken from article PMC7190641.

By UniProt entry, the sequences of proteins in these tests, tags left out. Where a name states a change or a piece, a line headed by the entry shows the natural chain unless it says otherwise.
UniProt G5EG87: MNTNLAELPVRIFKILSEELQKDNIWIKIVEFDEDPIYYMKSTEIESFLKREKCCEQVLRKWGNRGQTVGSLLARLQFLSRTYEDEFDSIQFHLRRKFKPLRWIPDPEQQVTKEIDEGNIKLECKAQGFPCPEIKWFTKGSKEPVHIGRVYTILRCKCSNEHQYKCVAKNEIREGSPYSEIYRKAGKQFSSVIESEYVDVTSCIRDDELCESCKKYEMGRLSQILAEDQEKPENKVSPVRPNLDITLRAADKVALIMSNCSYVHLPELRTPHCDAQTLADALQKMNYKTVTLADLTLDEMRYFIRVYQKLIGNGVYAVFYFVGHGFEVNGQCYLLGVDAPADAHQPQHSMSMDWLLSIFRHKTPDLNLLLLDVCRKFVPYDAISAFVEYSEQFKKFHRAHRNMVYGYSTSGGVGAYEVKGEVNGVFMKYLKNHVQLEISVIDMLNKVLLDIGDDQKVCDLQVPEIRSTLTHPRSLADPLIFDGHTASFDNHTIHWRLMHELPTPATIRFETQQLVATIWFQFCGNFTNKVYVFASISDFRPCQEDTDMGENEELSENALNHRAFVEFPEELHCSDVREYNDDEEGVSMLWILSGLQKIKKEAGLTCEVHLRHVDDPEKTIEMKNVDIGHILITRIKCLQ

What was measured:
[1] = biological target: T1, His10-tagged C. elegans NFKI-1-V5 (recombinant) (C. elegans) (UniProt G5EDE9); test: co-IP; pairwise co-immunoprecipitation of His10-tagged, epitope-tagged C. elegans proteins recombinantly expressed in E. coli; both purified
T1 sequence: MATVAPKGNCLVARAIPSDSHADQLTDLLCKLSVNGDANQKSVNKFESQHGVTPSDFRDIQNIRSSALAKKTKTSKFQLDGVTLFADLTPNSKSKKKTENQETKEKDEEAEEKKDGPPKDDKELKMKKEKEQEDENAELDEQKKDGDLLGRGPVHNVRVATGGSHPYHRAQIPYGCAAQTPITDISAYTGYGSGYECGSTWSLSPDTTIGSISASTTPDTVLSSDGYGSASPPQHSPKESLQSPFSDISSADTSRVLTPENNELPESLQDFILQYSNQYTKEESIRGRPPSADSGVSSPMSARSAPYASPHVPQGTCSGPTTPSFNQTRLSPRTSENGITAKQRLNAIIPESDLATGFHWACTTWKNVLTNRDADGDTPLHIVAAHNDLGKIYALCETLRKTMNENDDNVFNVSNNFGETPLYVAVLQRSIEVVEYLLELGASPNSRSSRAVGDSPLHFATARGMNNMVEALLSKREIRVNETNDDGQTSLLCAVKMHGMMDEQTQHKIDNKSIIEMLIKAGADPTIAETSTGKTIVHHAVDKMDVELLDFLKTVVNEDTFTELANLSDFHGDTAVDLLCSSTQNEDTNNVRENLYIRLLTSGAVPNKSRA

[2] = biological target: T2, NFKI-1 N-terminus (1-374), two-hybrid bait (C. elegans) (UniProt G5EDE9); test: two-hybrid; yeast AH109; prey in pGADT7, bait in pGBKT7; nutritional selection (ADE2), 10-fold serial dilutions; done by Panbionet
T2 sequence: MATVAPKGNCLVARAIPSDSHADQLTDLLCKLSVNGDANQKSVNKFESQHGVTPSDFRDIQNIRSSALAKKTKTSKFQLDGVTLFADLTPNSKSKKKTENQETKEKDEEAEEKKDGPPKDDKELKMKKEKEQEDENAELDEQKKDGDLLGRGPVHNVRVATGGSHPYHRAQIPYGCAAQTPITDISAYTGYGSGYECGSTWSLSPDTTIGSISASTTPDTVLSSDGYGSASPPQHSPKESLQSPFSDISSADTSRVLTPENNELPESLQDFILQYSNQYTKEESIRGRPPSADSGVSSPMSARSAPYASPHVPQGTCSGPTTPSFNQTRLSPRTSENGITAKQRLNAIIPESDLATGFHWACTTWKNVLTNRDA

[3] = biological target: MALT-1-HA (endogenous MALT-1 tagged with HA) (C. elegans); test: co-IP; multiple knock-in C. elegans strain (npr-1 animals); lysate in lysis buffer B; MALT-1-HA precipitated with anti-HA agarose, 30 min at 4 °C; half of the lysate with IgG-agarose as control; Western blot
[4] = biological target: His10-tagged C. elegans MALT-1-HA (recombinant) (C. elegans) (UniProt G5EG87); test: co-IP; pairwise co-immunoprecipitation of His10-tagged, epitope-tagged C. elegans proteins recombinantly expressed in E. coli; both purified

## His10-tagged C. elegans MALT-1-HA (recombinant) (from UniProt G5EG87)
[1]
  binding: binds

## MALT-1 Death Domain (1-81), two-hybrid prey (C. elegans) (domain or fragment)
[2]
  binding: binds

B1: ACTL-1-FLAG (endogenous ACTL-1 tagged with a FLAG epitope) (protein, UniProt Q18008 1-360)
chain: MTKMKMDVTIELDLDGDDWEEVDVLSDKCVEDILEDVHIDDPILVSDVRITLPANIRIKNFKKEIRDLILANLDVPTTVSAGSWQIVSSFLRGIEYSEIGGRERNSKLSWKPFEDMHAQILVNALAYAQRVDILVKLKSYIDSNSYLKNVPEPMFAFADTDSMASTTTFSEYAEPVHSMNARKKILLLHYETTSKEKEDFKWFKCNLKNVLEKERKEGKDLEVFDVKVWEKDDRGNVFQELEKHYDLFPHIVVCFNKSYIEATKPNSKSKMPQFRKSISDKLNVEFHMNGNRNLRGRCVLMSEVEKVTDTYWAAVTNQYPFPGSFEPFVKRLLRDGKVKKQSHNNANDHHEDSMNYSITQ
[3]
  binding: binds

B2: PIK-1-Myc (endogenous PIK-1 tagged with a Myc epitope) (protein, UniProt G5ECP4 1-485)
chain: MDDSLGVSEVVMIPFMKREVLQQICAILDTDNTWETIAPYMPGIELRDVEGCKRYSSYNQSPSELLLRIWSSKGYSTTHLYQLFAKTKLIRLMRMMRSQVHEKYHYLENKVTNSTSRVSKQMVQPPGSQSASRLKKTEIKESSPSPAAAAASQLSRSNTDDTLRVAIEGTLPVTYCELLEATNGFAVSNVIGKGGYGTVYKGELKGTGGIVAVKRLHSGNDTSQNGSRERLRQSLTELRTLARFRHDNILPIYAYSLEGSEPCLVYQFMSNGSLEDRLLCRKGSVPLTWIQRKEISIGAGRGLGFLHSFGKTPIIHGDIKTANILLDKHMEPKIGDFGLCRDGHVEAEAMEKHPLIASHIKGTLAYLAPEFITSKILTTKLDVYSFGIVLLEIASGQRAYSDSRETRGLVEYCQVNKELAAHRKIPVREIFIDRRAPPLVGDEEKSFLDALIEVGLAGANNDRKVRPTMSQIVEYLCKNSIPPVV
[3]
  binding: binds

B3: NFKI-1-V5 (endogenous NFKI-1 tagged with V5) (protein, UniProt G5EDE9 1-611)
chain: MATVAPKGNCLVARAIPSDSHADQLTDLLCKLSVNGDANQKSVNKFESQHGVTPSDFRDIQNIRSSALAKKTKTSKFQLDGVTLFADLTPNSKSKKKTENQETKEKDEEAEEKKDGPPKDDKELKMKKEKEQEDENAELDEQKKDGDLLGRGPVHNVRVATGGSHPYHRAQIPYGCAAQTPITDISAYTGYGSGYECGSTWSLSPDTTIGSISASTTPDTVLSSDGYGSASPPQHSPKESLQSPFSDISSADTSRVLTPENNELPESLQDFILQYSNQYTKEESIRGRPPSADSGVSSPMSARSAPYASPHVPQGTCSGPTTPSFNQTRLSPRTSENGITAKQRLNAIIPESDLATGFHWACTTWKNVLTNRDADGDTPLHIVAAHNDLGKIYALCETLRKTMNENDDNVFNVSNNFGETPLYVAVLQRSIEVVEYLLELGASPNSRSSRAVGDSPLHFATARGMNNMVEALLSKREIRVNETNDDGQTSLLCAVKMHGMMDEQTQHKIDNKSIIEMLIKAGADPTIAETSTGKTIVHHAVDKMDVELLDFLKTVVNEDTFTELANLSDFHGDTAVDLLCSSTQNEDTNNVRENLYIRLLTSGAVPNKSRA
[3]
  binding: binds

B4: His10-tagged C. elegans NFKI-1-V5 (recombinant) (protein, UniProt G5EDE9 1-611)
chain: MATVAPKGNCLVARAIPSDSHADQLTDLLCKLSVNGDANQKSVNKFESQHGVTPSDFRDIQNIRSSALAKKTKTSKFQLDGVTLFADLTPNSKSKKKTENQETKEKDEEAEEKKDGPPKDDKELKMKKEKEQEDENAELDEQKKDGDLLGRGPVHNVRVATGGSHPYHRAQIPYGCAAQTPITDISAYTGYGSGYECGSTWSLSPDTTIGSISASTTPDTVLSSDGYGSASPPQHSPKESLQSPFSDISSADTSRVLTPENNELPESLQDFILQYSNQYTKEESIRGRPPSADSGVSSPMSARSAPYASPHVPQGTCSGPTTPSFNQTRLSPRTSENGITAKQRLNAIIPESDLATGFHWACTTWKNVLTNRDADGDTPLHIVAAHNDLGKIYALCETLRKTMNENDDNVFNVSNNFGETPLYVAVLQRSIEVVEYLLELGASPNSRSSRAVGDSPLHFATARGMNNMVEALLSKREIRVNETNDDGQTSLLCAVKMHGMMDEQTQHKIDNKSIIEMLIKAGADPTIAETSTGKTIVHHAVDKMDVELLDFLKTVVNEDTFTELANLSDFHGDTAVDLLCSSTQNEDTNNVRENLYIRLLTSGAVPNKSRA
[4]
  binding: binds

B5: His10-tagged C. elegans ACTL-1-FLAG (recombinant) (protein, UniProt Q18008 1-360)
chain: MTKMKMDVTIELDLDGDDWEEVDVLSDKCVEDILEDVHIDDPILVSDVRITLPANIRIKNFKKEIRDLILANLDVPTTVSAGSWQIVSSFLRGIEYSEIGGRERNSKLSWKPFEDMHAQILVNALAYAQRVDILVKLKSYIDSNSYLKNVPEPMFAFADTDSMASTTTFSEYAEPVHSMNARKKILLLHYETTSKEKEDFKWFKCNLKNVLEKERKEGKDLEVFDVKVWEKDDRGNVFQELEKHYDLFPHIVVCFNKSYIEATKPNSKSKMPQFRKSISDKLNVEFHMNGNRNLRGRCVLMSEVEKVTDTYWAAVTNQYPFPGSFEPFVKRLLRDGKVKKQSHNNANDHHEDSMNYSITQ
[4]
  binding: binds

These are yes or no findings as the source states them, for the method shown. A result given as binding can be weak or reduced; the word gives no strength. For some of these results: In cells and extracts the contact can be indirect. For some of these results: Sequences can lack the tags named with a protein.
